Source: patent US12410179B2, “Modulators of TNF alpha activity and uses thereof” (RayThera, Inc., priority 2023, dated 2025)

By UniProt entry, the sequences of proteins in these tests, tags left out. Residues count along the entry.
UniProt P01375, 77-233 limits assumed: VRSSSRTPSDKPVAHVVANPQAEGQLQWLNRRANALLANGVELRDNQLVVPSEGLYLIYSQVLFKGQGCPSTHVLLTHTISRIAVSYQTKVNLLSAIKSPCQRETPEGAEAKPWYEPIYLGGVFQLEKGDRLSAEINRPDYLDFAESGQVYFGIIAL

Assays:
TNFα = TNFα (Homo sapiens, UniProt P01375); assay: HEK-Blue hTNFα reporter assay; conditions: HEK-Blue hTNFα reporter cells
Caco-2 cells = assay: Caco-2 assay (permeability); format: in vitro ADME; conditions: 5 μM, 2 hours
[1] = read-out: IC50 Range, SEAP readout

Row | Compound | TNFα reporter, Emax (TNFα) [%] | IC50 (TNFα; [1]) [nM] | IC50 (TNFα; read-out: TNFα reporter, IC50) [nM] | Caco-2, ER (efflux ratio) (Caco-2 cells; Papp (B-A)/Papp (A-B)) | Caco-2, Papp (A-B) (Caco-2 cells; apical to basolateral)
1 | CN1C(=O)c2cccc(OC(F)F)c2[C@H]2C[C@@H]1c1nn3ccc(-c4cnc([C@]5(N)C[C@@](C)(C#N)C5)nc4)cc3c12 | 93 | < 25 | 4.6 | 5.5 | 1.3 10^−6 cm/s
2 | CN1C(=O)c2cccc(OC(F)F)c2[C@H]2C[C@@H]1c1nn3ccc(-c4ccc(P(C)(C)=O)c(F)c4)cc3c12 | – | < 25 | – | – | –

Read-outs that look alike come from different tables or passages of the source. Structures were worked out from names or drawings and are uncertain.
